Measurements from paper PMC11291268.
These are yes or no findings as the source states them, for the method shown. Binding seen in cells or lysates may run through a third protein. Some results given as binding are weak or reduced against the parent protein; the word gives no strength. For some of these results: Where a sequence is shown, tags or fusion partners need not be part of it.

Amino acid sequences for entries named in this document (tags omitted). A change or cut given only in a name is not applied to a line headed by its entry.
UniProt P16520: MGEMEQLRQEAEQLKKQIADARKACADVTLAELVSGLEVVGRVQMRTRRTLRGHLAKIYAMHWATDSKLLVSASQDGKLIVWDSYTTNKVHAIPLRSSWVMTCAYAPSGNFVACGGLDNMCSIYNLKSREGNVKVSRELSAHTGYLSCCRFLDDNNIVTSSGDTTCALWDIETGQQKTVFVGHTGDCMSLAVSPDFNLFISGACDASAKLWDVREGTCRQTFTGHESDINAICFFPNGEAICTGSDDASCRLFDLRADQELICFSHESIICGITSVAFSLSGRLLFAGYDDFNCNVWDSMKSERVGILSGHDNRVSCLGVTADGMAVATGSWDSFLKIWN
UniProt P16378: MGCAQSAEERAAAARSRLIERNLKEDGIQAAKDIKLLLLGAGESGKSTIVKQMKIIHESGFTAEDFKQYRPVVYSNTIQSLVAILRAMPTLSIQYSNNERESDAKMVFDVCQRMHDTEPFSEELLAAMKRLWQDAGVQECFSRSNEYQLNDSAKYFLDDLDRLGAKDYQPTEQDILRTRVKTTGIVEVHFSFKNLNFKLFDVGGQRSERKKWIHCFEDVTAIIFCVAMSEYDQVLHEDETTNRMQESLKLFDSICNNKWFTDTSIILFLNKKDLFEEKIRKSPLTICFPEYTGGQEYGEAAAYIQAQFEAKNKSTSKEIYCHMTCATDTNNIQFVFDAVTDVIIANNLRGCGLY
UniProt P29992: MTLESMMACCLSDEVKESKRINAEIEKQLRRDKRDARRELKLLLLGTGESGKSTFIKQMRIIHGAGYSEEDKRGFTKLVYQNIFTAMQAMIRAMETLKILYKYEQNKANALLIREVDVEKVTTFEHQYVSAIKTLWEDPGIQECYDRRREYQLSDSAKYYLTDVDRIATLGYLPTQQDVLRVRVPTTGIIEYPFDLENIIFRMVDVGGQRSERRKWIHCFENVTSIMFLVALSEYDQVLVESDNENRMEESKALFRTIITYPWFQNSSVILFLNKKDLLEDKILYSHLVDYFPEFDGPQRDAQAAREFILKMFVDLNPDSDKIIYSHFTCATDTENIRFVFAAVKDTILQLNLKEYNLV
UniProt Q14344: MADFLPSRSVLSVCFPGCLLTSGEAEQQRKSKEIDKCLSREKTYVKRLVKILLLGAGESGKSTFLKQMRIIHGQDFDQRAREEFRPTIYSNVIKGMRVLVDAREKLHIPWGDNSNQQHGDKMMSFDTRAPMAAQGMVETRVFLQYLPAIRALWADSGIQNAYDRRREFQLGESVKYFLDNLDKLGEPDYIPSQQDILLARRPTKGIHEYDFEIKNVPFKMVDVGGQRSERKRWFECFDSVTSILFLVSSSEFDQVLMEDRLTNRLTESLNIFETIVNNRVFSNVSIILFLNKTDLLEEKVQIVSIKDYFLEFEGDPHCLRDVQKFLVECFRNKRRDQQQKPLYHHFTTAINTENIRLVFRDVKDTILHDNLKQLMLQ
UniProt P63096: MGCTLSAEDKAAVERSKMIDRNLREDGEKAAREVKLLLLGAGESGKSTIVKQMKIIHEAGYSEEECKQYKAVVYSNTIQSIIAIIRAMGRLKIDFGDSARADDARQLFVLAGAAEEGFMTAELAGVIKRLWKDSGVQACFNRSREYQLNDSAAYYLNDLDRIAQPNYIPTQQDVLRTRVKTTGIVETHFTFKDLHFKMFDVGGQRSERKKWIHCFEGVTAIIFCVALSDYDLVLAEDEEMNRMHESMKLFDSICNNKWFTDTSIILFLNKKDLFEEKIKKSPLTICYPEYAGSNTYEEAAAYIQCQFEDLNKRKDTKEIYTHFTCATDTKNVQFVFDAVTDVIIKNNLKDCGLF
UniProt P09471: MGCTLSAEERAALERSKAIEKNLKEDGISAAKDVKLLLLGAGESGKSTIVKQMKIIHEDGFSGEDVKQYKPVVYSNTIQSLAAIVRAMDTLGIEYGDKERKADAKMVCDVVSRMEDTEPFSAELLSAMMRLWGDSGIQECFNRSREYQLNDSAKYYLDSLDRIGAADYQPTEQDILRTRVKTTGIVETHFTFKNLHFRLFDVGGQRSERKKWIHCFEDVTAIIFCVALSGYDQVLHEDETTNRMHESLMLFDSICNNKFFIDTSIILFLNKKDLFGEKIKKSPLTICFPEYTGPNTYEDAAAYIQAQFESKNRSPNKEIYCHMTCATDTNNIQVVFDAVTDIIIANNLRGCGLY
UniProt P38405: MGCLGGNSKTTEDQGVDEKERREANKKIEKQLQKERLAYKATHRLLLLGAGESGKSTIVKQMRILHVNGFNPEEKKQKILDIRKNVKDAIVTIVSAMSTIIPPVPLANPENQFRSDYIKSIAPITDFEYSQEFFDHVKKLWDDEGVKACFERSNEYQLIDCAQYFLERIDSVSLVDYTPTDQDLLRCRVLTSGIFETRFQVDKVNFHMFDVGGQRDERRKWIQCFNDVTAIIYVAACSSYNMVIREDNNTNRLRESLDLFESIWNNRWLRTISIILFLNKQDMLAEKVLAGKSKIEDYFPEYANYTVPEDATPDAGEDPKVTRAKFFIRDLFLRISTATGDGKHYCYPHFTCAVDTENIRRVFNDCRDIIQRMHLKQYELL
UniProt P50148: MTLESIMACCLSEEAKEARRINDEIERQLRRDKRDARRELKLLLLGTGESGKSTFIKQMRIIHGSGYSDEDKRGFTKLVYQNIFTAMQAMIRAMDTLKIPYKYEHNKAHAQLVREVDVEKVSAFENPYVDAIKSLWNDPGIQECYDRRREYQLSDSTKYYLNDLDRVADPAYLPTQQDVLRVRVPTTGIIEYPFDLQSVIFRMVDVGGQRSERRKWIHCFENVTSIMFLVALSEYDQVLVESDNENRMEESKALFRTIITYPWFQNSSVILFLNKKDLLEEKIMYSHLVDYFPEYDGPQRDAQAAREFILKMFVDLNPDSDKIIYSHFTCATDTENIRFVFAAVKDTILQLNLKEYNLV
UniProt P63092: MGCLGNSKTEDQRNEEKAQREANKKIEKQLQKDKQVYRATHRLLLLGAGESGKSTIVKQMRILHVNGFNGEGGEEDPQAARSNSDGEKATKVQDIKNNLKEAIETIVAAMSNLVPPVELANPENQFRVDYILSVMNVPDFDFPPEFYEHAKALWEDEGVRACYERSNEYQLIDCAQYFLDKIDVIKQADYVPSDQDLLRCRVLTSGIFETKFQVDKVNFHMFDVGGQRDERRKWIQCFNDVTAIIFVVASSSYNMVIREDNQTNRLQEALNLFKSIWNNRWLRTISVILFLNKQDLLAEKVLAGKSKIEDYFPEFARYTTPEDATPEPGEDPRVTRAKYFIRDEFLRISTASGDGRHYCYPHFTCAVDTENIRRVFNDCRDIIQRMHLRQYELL

Key:
[1] = target: T1, GFP-Ric8A (UniProt Q3TIR3); test: co-IP; Drosophila or human Gαo G203R with Drosophila GFP-Ric8 or mammalian GFP-Ric8A (Supplemental Figure 8A); cell line not stated
T1 sequence: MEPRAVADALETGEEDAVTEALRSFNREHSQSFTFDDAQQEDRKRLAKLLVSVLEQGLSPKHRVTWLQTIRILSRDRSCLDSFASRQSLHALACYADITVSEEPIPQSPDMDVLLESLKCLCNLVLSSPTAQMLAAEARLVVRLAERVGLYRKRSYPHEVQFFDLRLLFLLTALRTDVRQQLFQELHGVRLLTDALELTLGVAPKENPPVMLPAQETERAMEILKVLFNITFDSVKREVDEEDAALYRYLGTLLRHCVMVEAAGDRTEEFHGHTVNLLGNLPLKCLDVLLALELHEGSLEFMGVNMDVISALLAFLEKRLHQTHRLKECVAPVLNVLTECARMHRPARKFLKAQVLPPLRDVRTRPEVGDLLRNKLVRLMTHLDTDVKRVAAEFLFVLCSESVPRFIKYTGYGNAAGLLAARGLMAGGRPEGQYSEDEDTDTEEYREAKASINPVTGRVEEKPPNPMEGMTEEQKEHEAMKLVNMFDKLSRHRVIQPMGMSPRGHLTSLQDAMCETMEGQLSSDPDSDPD

[2] = target: T2, Drosophila GFP-Ric8 (Drosophila) (UniProt Q9W358); test: as above
T2 sequence: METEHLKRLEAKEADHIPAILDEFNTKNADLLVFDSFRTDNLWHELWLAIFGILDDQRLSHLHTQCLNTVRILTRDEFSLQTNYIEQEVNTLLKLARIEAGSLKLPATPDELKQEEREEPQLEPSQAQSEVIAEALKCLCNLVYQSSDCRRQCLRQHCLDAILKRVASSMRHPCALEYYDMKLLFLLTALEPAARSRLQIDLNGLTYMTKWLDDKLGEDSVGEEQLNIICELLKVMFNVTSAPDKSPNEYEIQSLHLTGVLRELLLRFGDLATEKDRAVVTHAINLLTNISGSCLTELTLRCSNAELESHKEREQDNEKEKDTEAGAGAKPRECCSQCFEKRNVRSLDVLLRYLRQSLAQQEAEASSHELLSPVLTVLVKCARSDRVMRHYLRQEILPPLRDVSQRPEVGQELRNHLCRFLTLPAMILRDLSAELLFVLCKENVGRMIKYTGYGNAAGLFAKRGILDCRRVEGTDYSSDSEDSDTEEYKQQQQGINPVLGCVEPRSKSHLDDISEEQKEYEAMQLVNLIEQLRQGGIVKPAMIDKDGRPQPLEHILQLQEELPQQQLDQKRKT

[3] = target: T1, GFP-Ric8A; test: co-IP; HEK293T cells cotransfected with GFP-Ric8A or GFP-Ric8B and a nontagged Gα subunit; IP with GST-tagged anti-GFP nanobody; Western blot
[4] = target: T3, GFP-Ric8B (UniProt Q80XE1); test: as above
T3 sequence: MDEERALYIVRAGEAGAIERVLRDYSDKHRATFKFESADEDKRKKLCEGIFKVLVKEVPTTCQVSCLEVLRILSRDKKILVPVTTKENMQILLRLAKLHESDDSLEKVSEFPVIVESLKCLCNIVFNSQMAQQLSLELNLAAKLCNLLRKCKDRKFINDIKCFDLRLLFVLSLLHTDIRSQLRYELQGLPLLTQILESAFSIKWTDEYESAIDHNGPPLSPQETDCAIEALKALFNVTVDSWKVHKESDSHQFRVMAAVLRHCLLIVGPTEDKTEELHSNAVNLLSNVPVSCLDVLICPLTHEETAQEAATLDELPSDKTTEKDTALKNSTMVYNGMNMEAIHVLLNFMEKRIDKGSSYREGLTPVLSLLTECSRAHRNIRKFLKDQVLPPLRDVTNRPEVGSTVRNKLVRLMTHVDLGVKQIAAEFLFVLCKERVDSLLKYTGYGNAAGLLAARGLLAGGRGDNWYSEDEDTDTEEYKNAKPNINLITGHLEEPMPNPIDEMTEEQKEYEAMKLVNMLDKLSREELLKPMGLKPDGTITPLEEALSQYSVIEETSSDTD

[5] = target: T1, GFP-Ric8A; test: co-IP; HEK293T cells cotransfected with GFP-Ric8A or GFP-Ric8B, a nontagged Gα subunit and wild-type Gαo, a Gαo mutant or empty plasmid (1 μg each); IP with GST-tagged anti-GFP nanobody; Western blot
[6] = target: Gβ3γ9 with a Venus fusion (UniProt P16520); test: FRET or BRET; Gβ3γ9 displacement: HEK293T cells cotransfected with Go1-CASE (NLuc-tagged Gαo, Gβ3, Venus-tagged Gγ9) and nontagged Gαo variant at 1:1; reduction in the BRET signal
[7] = target: T3, GFP-Ric8B; test: co-IP; HEK293T cells cotransfected with GFP-Ric8A or GFP-Ric8B, a nontagged Gα subunit and wild-type Gαo, a Gαo mutant or empty plasmid (1 μg each); IP with GST-tagged anti-GFP nanobody; Western blot
[8] = target: T3, GFP-Ric8B; test: co-IP; N2a cells cotransfected with GFP-Ric8B and nontagged Gαo variant; IP with GST-tagged anti-GFP nanobody; Western blot with anti-GFP and anti-Gαo (clone E1 or A2)
[9] = target: T1, GFP-Ric8A; test: co-IP; N2a cells cotransfected with GFP-Ric8A (wild type, R75E or K225A) and nontagged Gαo variant; IP with GST-tagged anti-GFP nanobody; Western blot with anti-GFP and anti-Gαo (clone E1 or A2); also after 10 μM DDD85646

| Substance | binding [6] | binding [8] | binding [9] | also measured |
| --- | --- | --- | --- | --- |
| Drosophila Gαo G203R (from UniProt P16378 1-354) |  |  |  | binding [1]: binds; binding [2]: binds |
| Gα11 (from UniProt P29992 1-359) |  |  |  | binding [3]: binds; binding [4]: binds; binding [5]: binds |
| Gα13 (from UniProt Q14344 1-377) |  |  |  | binding [3]: binds; binding [5]: binds |
| Gαi1 (from UniProt P63096 1-354) |  |  |  | binding [3]: binds; binding [5]: binds |
| Gαo-NLuc (from UniProt P09471 1-354) | binds |  |  |  |
| Gαolf (from UniProt P38405 1-381) |  |  |  | binding [4]: binds; binding [7]: binds |
| Gαq (from UniProt P50148 1-359) |  |  |  | binding [3]: binds; binding [4]: binds; binding [5]: binds |
| Gαs (from UniProt P63092 1-394) |  |  |  | binding [4]: binds; binding [7]: binds |
| nontagged Gαo A227V (from UniProt P09471 1-354) |  | binds | binds |  |
| nontagged Gαo C215Y (from UniProt P09471 1-354) | binds |  | binds |  |
| nontagged Gαo D174G (from UniProt P09471 1-354) | binds weakly | binds | binds |  |
| nontagged Gαo E237K (from UniProt P09471 1-354) | binds | binds | binds |  |
| nontagged Gαo E246K (from UniProt P09471 1-354) | binds | binds | binds |  |
| nontagged Gαo F275S (from UniProt P09471 1-354) | binds weakly | binds | binds |  |
| nontagged Gαo G40R (from UniProt P09471 1-354) | binds weakly | binds | binds |  |
| nontagged Gαo G45E (from UniProt P09471 1-354) | binds weakly | binds | binds |  |
| nontagged Gαo G203R (from UniProt P09471 1-354) | binds | binds | binds | binding [2]: binds |
| nontagged Gαo I279N (from UniProt P09471 1-354) |  | binds | binds |  |
| nontagged Gαo L199P (from UniProt P09471 1-354) |  | binds | binds |  |
| nontagged Gαo N270H (from UniProt P09471 1-354) | binds weakly | binds | binds |  |
| nontagged Gαo Q205L (from UniProt P09471 1-354) |  |  | binds weakly |  |
| nontagged Gαo Q233P (from UniProt P09471 1-354) | binds | binds | binds |  |
| nontagged Gαo R209C (from UniProt P09471 1-354) | binds | binds | binds |  |
| nontagged Gαo S47G (from UniProt P09471 1-354) | binds | binds | binds |  |
| nontagged Gαo Y231C (from UniProt P09471 1-354) |  | binds | binds |  |
| nontagged Gαo wild-type (from UniProt P09471 1-354) | binds |  | binds weakly |  |
